The results in this text go back to US20190010493A1 (published 2019).

Results are given in words; binding and its absence hold for the method and conditions named. Binding seen in cells or lysates may run through a third protein.

This assay deals with HA-tagged full-length RSK2. The experiment in a line: co-immunoprecipitation in heterologous cells.

B1: mAKAP RSK binding domain (RBD), mAKAP residues 1694 to 1833 (other, not shown: small tags and cut ends)
chain: ELSLCSEDIVLHKNKIPESNASFRKRLNRSVADESDVNVSMIVNVSCTSACTDDEDDSDLLSSSTLTLTEEELCLKDEDDDSSIATDDEIYEESNLMSGLDYIKNELQTWIRPKLSLTREKKRSGVTDEIKVNKDGGGNE
notes: also called mAKAP RBD
For B1, the binding entry is reported as “no binding”.
